Reference: publication PMC7898959, “Identification of an amino-terminus determinant critical for ryanodine receptor/Ca^2+ release channel function” (Cardiovascular Research, 2020)
No constants are given. Whether binding was seen depends on the method and setting. For part of these data: Binding seen in cells or lysates may run through a third protein. Some entries that bind do so weakly or less than the wild type.

Legend:
[1] = biological target: full-length human RyR2^R176Q (human) (UniProt Q92736); experiment: sucrose density gradient centrifugation; CHAPS-solubilized HEK293 microsomes on a continuous 5–40% sucrose gradient, 100 000 × g for 16 h at 4°C; fractions blotted with RyR2 Ab^1093
[2] = biological target: full-length human RyR2^Δβ8–β9 (amino acids 167–178 removed) (human) (UniProt Q92736); experiment: as above
[3] = biological target: NT^β13–β14/4Ala (RyR2 residues 1–906, residues 240–243 substituted by alanine) (human) (UniProt Q92736); experiment: cross-linking; HEK293 cell homogenate (20 μg) with glutaraldehyde (0.0025% or 260 μmol/L) for 0 min to 1 h under reducing (10 mM DTT) conditions; SDS-PAGE and blot with Ab^cMyc; tetramer formation T = ODT/(ODT + ODM) × 100 by densitometry
[4] = biological target: HA-RyR2-CT (RyR2 C-terminal fragment, residues 3529–4967, N-terminal HA epitope tag) (human) (UniProt Q92736); experiment: co-IP; HEK293 cells co-expressing HA-RyR2-CT and cMyc-NT constructs; CHAPS-solubilized lysate (20 mM Tris, 150 mM NaCl, 0.5% CHAPS, pH 7.4), IP with Ab^HA on protein A sepharose at 4°C, blot with Ab^cMyc; in 1 mM EGTA or 100 μM CaCl2; non-immune rabbit IgG as negative control
[5] = biological target: wild-type RyR2 N-terminus (NT, residues 1–906) tagged with the cMyc epitope (human) (UniProt Q92736); experiment: cross-linking; HEK293 cell homogenate (20 μg) with glutaraldehyde (0.0025% or 260 μmol/L) for 0 min to 1 h under reducing (10 mM DTT) conditions; SDS-PAGE and blot with Ab^cMyc; tetramer formation T = ODT/(ODT + ODM) × 100 by densitometry
[6] = biological target: NT^(E173A + K174A) (RyR2 residues 1–906) (human) (UniProt Q92736); experiment: as above
[7] = biological target: NT^(K167A + Q168A) (RyR2 residues 1–906) (human) (UniProt Q92736); experiment: as above

full-length human RyR2^R176Q (from UniProt Q92736 1-4967)
binding [1]: binds

full-length human RyR2^Δβ8–β9 (amino acids 167–178 removed) (from UniProt Q92736 1-4967)
binding [2]: binds weakly

NT^β13–β14/4Ala (RyR2 residues 1–906, residues 240–243 substituted by alanine) (from UniProt Q92736 1-906) (domain or fragment)
binding [3]: binds

B1: wild-type RyR2 N-terminus (NT, residues 1–906) tagged with the cMyc epitope (domain or fragment, human, UniProt Q92736 1-906, looked up)
chain: MADGGEGEDEIQFLRTDDEVVLQCTATIHKEQQKLCLAAEGFGNRLCFLESTSNSKNVPPDLSICTFVLEQSLSVRALQEMLANTVEKSEGQVDVEKWKFMMKTAQGGGHRTLLYGHAILLRHSYSGMYLCCLSTSRSSTDKLAFDVGLQEDTTGEACWWTIHPASKQRSEGEKVRVGDDLILVSVSSERYLHLSYGNGSLHVDAAFQQTLWSVAPISSGSEAAQGYLIGGDVLRLLHGHMDECLTVPSGEHGEEQRRTVHYEGGAVSVHARSLWRLETLRVAWSGSHIRWGQPFRLRHVTTGKYLSLMEDKNLLLMDKEKADVKSTAFTFRSSKEKLDVGVRKEVDGMGTSEIKYGDSVCYIQHVDTGLWLTYQSVDVKSVRMGSIQRKAIMHHEGHMDDGISLSRSQHEESRTARVIRSTVFLFNRFIRGLDALSKKAKASTVDLPIESVSLSLQDLIGYFHPPDEHLEHEDKQNRLRALKNRQNLFQEEGMINLVLECIDRLHVYSSAAHFADVAGREAGESWKSILNSLYELLAALIRGNRKNCAQFSGSLDWLISRLERLEASSGILEVLHCVLVESPEALNIIKEGHIKSIISLLDKHGRNHKVLDVLCSLCVCHGVAVRSNQHLICDNLLPGRDLLLQTRLVNHVSSMRPNIFLGVSEGSAQYKKWYYELMVDHTEPFVTAEATHLRVGWASTEGYSPYPGGGEEWGGNGVGDDLFSYGFDGLHLWSGCIARTVSSPNQHLLRTDDVISCCLDLSAPSISFRINGQPVQGMFENFNIDGLFFPVVSFSAGIKVRFLLGGRHGEFKFLPPPGYAPCYEAVLPKEKLKVEHSREYKQERTYTRDLLGPTVSLTQAAFTPIPVDTSQIVLPPHLERIREKLAENIHELWVMNKIELGWQYGP
notes: cardiac ryanodine receptor (RyR2), N-terminus, residues 1-906; species is stated for the full-length RyR2 cDNA (human), not for NT itself; also called NT^WT; source: HEK293, transiently transfected, in cell homogenate (cross-linking) or CHAPS-solubilized lysate (co-IP); not shown: cMyc, N-terminal, kept
binding [4]: binds | binding [5]: binds

B2: NT^R176Q (RyR2 residues 1–906 with the arrhythmia-linked R176Q mutation) (domain or fragment, human, UniProt Q92736 1-906, looked up)
chain: MADGGEGEDEIQFLRTDDEVVLQCTATIHKEQQKLCLAAEGFGNRLCFLESTSNSKNVPPDLSICTFVLEQSLSVRALQEMLANTVEKSEGQVDVEKWKFMMKTAQGGGHRTLLYGHAILLRHSYSGMYLCCLSTSRSSTDKLAFDVGLQEDTTGEACWWTIHPASKQRSEGEKVQVGDDLILVSVSSERYLHLSYGNGSLHVDAAFQQTLWSVAPISSGSEAAQGYLIGGDVLRLLHGHMDECLTVPSGEHGEEQRRTVHYEGGAVSVHARSLWRLETLRVAWSGSHIRWGQPFRLRHVTTGKYLSLMEDKNLLLMDKEKADVKSTAFTFRSSKEKLDVGVRKEVDGMGTSEIKYGDSVCYIQHVDTGLWLTYQSVDVKSVRMGSIQRKAIMHHEGHMDDGISLSRSQHEESRTARVIRSTVFLFNRFIRGLDALSKKAKASTVDLPIESVSLSLQDLIGYFHPPDEHLEHEDKQNRLRALKNRQNLFQEEGMINLVLECIDRLHVYSSAAHFADVAGREAGESWKSILNSLYELLAALIRGNRKNCAQFSGSLDWLISRLERLEASSGILEVLHCVLVESPEALNIIKEGHIKSIISLLDKHGRNHKVLDVLCSLCVCHGVAVRSNQHLICDNLLPGRDLLLQTRLVNHVSSMRPNIFLGVSEGSAQYKKWYYELMVDHTEPFVTAEATHLRVGWASTEGYSPYPGGGEEWGGNGVGDDLFSYGFDGLHLWSGCIARTVSSPNQHLLRTDDVISCCLDLSAPSISFRINGQPVQGMFENFNIDGLFFPVVSFSAGIKVRFLLGGRHGEFKFLPPPGYAPCYEAVLPKEKLKVEHSREYKQERTYTRDLLGPTVSLTQAAFTPIPVDTSQIVLPPHLERIREKLAENIHELWVMNKIELGWQYGP
notes: cardiac ryanodine receptor (RyR2), N-terminus, residues 1-906, with the disease-linked (ARVD2, CPVT) mutation R176Q; source: HEK293, transiently transfected, in cell homogenate (cross-linking) or CHAPS-solubilized lysate (co-IP); not shown: cMyc, N-terminal, kept
binding [4]: binds

B3: NT^(E173A + K174A) (RyR2 residues 1–906) (domain or fragment, human, UniProt Q92736 1-906, looked up)
chain: MADGGEGEDEIQFLRTDDEVVLQCTATIHKEQQKLCLAAEGFGNRLCFLESTSNSKNVPPDLSICTFVLEQSLSVRALQEMLANTVEKSEGQVDVEKWKFMMKTAQGGGHRTLLYGHAILLRHSYSGMYLCCLSTSRSSTDKLAFDVGLQEDTTGEACWWTIHPASKQRSEGAAVRVGDDLILVSVSSERYLHLSYGNGSLHVDAAFQQTLWSVAPISSGSEAAQGYLIGGDVLRLLHGHMDECLTVPSGEHGEEQRRTVHYEGGAVSVHARSLWRLETLRVAWSGSHIRWGQPFRLRHVTTGKYLSLMEDKNLLLMDKEKADVKSTAFTFRSSKEKLDVGVRKEVDGMGTSEIKYGDSVCYIQHVDTGLWLTYQSVDVKSVRMGSIQRKAIMHHEGHMDDGISLSRSQHEESRTARVIRSTVFLFNRFIRGLDALSKKAKASTVDLPIESVSLSLQDLIGYFHPPDEHLEHEDKQNRLRALKNRQNLFQEEGMINLVLECIDRLHVYSSAAHFADVAGREAGESWKSILNSLYELLAALIRGNRKNCAQFSGSLDWLISRLERLEASSGILEVLHCVLVESPEALNIIKEGHIKSIISLLDKHGRNHKVLDVLCSLCVCHGVAVRSNQHLICDNLLPGRDLLLQTRLVNHVSSMRPNIFLGVSEGSAQYKKWYYELMVDHTEPFVTAEATHLRVGWASTEGYSPYPGGGEEWGGNGVGDDLFSYGFDGLHLWSGCIARTVSSPNQHLLRTDDVISCCLDLSAPSISFRINGQPVQGMFENFNIDGLFFPVVSFSAGIKVRFLLGGRHGEFKFLPPPGYAPCYEAVLPKEKLKVEHSREYKQERTYTRDLLGPTVSLTQAAFTPIPVDTSQIVLPPHLERIREKLAENIHELWVMNKIELGWQYGP
notes: cardiac ryanodine receptor (RyR2), N-terminus, residues 1-906, double alanine substitution E173 + K174; negative control mutant; source: HEK293, transiently transfected, in cell homogenate; not shown: cMyc, N-terminal, kept
binding [6]: binds

B4: NT^(K167A + Q168A) (RyR2 residues 1–906) (domain or fragment, human, UniProt Q92736 1-906, looked up)
chain: MADGGEGEDEIQFLRTDDEVVLQCTATIHKEQQKLCLAAEGFGNRLCFLESTSNSKNVPPDLSICTFVLEQSLSVRALQEMLANTVEKSEGQVDVEKWKFMMKTAQGGGHRTLLYGHAILLRHSYSGMYLCCLSTSRSSTDKLAFDVGLQEDTTGEACWWTIHPASAARSEGEKVRVGDDLILVSVSSERYLHLSYGNGSLHVDAAFQQTLWSVAPISSGSEAAQGYLIGGDVLRLLHGHMDECLTVPSGEHGEEQRRTVHYEGGAVSVHARSLWRLETLRVAWSGSHIRWGQPFRLRHVTTGKYLSLMEDKNLLLMDKEKADVKSTAFTFRSSKEKLDVGVRKEVDGMGTSEIKYGDSVCYIQHVDTGLWLTYQSVDVKSVRMGSIQRKAIMHHEGHMDDGISLSRSQHEESRTARVIRSTVFLFNRFIRGLDALSKKAKASTVDLPIESVSLSLQDLIGYFHPPDEHLEHEDKQNRLRALKNRQNLFQEEGMINLVLECIDRLHVYSSAAHFADVAGREAGESWKSILNSLYELLAALIRGNRKNCAQFSGSLDWLISRLERLEASSGILEVLHCVLVESPEALNIIKEGHIKSIISLLDKHGRNHKVLDVLCSLCVCHGVAVRSNQHLICDNLLPGRDLLLQTRLVNHVSSMRPNIFLGVSEGSAQYKKWYYELMVDHTEPFVTAEATHLRVGWASTEGYSPYPGGGEEWGGNGVGDDLFSYGFDGLHLWSGCIARTVSSPNQHLLRTDDVISCCLDLSAPSISFRINGQPVQGMFENFNIDGLFFPVVSFSAGIKVRFLLGGRHGEFKFLPPPGYAPCYEAVLPKEKLKVEHSREYKQERTYTRDLLGPTVSLTQAAFTPIPVDTSQIVLPPHLERIREKLAENIHELWVMNKIELGWQYGP
notes: cardiac ryanodine receptor (RyR2), N-terminus, residues 1-906, double alanine substitution K167 + Q168; source: HEK293, transiently transfected, in cell homogenate; not shown: cMyc, N-terminal, kept
binding [7]: binds

B5: NT^Δβ8–β9 (RyR2 residues 1–906, residues 167–178 removed) (domain or fragment, human, UniProt Q92736 1-906, looked up)
chain: MADGGEGEDEIQFLRTDDEVVLQCTATIHKEQQKLCLAAEGFGNRLCFLESTSNSKNVPPDLSICTFVLEQSLSVRALQEMLANTVEKSEGQVDVEKWKFMMKTAQGGGHRTLLYGHAILLRHSYSGMYLCCLSTSRSSTDKLAFDVGLQEDTTGEACWWTIHPASDDLILVSVSSERYLHLSYGNGSLHVDAAFQQTLWSVAPISSGSEAAQGYLIGGDVLRLLHGHMDECLTVPSGEHGEEQRRTVHYEGGAVSVHARSLWRLETLRVAWSGSHIRWGQPFRLRHVTTGKYLSLMEDKNLLLMDKEKADVKSTAFTFRSSKEKLDVGVRKEVDGMGTSEIKYGDSVCYIQHVDTGLWLTYQSVDVKSVRMGSIQRKAIMHHEGHMDDGISLSRSQHEESRTARVIRSTVFLFNRFIRGLDALSKKAKASTVDLPIESVSLSLQDLIGYFHPPDEHLEHEDKQNRLRALKNRQNLFQEEGMINLVLECIDRLHVYSSAAHFADVAGREAGESWKSILNSLYELLAALIRGNRKNCAQFSGSLDWLISRLERLEASSGILEVLHCVLVESPEALNIIKEGHIKSIISLLDKHGRNHKVLDVLCSLCVCHGVAVRSNQHLICDNLLPGRDLLLQTRLVNHVSSMRPNIFLGVSEGSAQYKKWYYELMVDHTEPFVTAEATHLRVGWASTEGYSPYPGGGEEWGGNGVGDDLFSYGFDGLHLWSGCIARTVSSPNQHLLRTDDVISCCLDLSAPSISFRINGQPVQGMFENFNIDGLFFPVVSFSAGIKVRFLLGGRHGEFKFLPPPGYAPCYEAVLPKEKLKVEHSREYKQERTYTRDLLGPTVSLTQAAFTPIPVDTSQIVLPPHLERIREKLAENIHELWVMNKIELGWQYGP
notes: also called β8–β9 loop deletion; source: HEK293, transiently transfected, in cell homogenate (cross-linking) or CHAPS-solubilized lysate (co-IP); not shown: cMyc, N-terminal, kept
binding [4]: binds
